Test results published in publication PMC3390794.
No constants are given. Whether binding was seen depends on the method and setting. In cells and extracts the contact can be indirect. Some entries that bind do so weakly or less than the wild type. For part of these data: Sequences can lack the tags named with a protein.

Protein sequences, listed by entry. Tags and fused reporters are not part of them.
UniProt O15105: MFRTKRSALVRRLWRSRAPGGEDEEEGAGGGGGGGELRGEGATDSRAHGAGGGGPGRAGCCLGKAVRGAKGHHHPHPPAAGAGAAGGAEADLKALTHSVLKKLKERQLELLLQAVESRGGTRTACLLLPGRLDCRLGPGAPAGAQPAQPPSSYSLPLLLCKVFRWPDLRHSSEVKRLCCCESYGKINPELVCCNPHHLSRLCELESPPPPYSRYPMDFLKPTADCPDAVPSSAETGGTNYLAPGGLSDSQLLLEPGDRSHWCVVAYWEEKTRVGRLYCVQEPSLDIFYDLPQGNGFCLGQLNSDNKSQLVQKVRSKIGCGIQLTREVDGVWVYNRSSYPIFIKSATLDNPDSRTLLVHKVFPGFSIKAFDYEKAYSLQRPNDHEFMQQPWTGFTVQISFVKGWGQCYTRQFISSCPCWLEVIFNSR
UniProt P51784: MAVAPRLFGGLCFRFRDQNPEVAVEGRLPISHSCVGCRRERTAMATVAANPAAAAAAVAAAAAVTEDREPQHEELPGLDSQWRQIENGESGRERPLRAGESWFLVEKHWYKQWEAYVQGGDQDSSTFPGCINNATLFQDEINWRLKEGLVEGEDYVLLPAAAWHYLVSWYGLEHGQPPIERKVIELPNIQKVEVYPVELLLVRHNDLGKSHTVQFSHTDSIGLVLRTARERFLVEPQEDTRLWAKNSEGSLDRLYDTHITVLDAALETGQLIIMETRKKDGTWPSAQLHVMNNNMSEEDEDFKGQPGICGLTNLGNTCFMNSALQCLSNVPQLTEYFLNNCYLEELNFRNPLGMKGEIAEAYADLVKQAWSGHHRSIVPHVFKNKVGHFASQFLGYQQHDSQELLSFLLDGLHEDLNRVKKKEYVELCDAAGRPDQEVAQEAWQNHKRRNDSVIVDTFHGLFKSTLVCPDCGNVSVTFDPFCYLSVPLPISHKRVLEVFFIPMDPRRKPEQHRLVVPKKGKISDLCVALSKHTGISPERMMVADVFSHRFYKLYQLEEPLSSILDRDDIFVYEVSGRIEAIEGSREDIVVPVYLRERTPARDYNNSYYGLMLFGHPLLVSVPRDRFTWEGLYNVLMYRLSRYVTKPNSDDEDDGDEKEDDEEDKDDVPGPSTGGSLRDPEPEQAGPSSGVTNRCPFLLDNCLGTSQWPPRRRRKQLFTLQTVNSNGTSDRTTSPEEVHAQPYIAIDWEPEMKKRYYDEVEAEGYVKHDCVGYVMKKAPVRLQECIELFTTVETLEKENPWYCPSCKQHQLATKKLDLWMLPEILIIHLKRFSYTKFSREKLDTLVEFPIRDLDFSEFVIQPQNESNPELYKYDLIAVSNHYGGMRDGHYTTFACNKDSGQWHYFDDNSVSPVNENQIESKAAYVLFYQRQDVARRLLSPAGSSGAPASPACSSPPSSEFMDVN

Tests used:
FLAG-ALK5 (human) = molecular target: T1, FLAG-ALK5 (human) (UniProt P36897); assay: co-IP; HEK293 transiently co-transfected with FLAG-tagged bait and HA-USP11 (with or without HA-SMAD7 for ALK5); FLAG IPs (2 h, 4°C, washes with 0.5 M NaCl) immunoblotted with HA antibody
T1 sequence: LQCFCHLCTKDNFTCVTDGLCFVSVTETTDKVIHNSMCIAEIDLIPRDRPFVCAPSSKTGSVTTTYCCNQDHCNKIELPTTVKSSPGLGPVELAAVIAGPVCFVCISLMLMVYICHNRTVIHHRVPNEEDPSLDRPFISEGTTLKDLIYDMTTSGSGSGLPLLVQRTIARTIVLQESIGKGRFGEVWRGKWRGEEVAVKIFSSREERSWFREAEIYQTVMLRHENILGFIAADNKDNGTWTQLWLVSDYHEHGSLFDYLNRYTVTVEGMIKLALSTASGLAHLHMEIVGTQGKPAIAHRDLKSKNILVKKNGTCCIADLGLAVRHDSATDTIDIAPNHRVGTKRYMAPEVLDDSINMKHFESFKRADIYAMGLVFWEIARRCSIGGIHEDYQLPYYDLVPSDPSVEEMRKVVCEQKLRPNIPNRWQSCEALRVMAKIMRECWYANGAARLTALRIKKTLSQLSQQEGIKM

FLAG–SMAD7 (human) [1] = molecular target: FLAG–SMAD7 (human) (UniProt O15105); assay: as above
3XFLAG-ALK5 (human) = molecular target: T2, 3XFLAG-ALK5 (human) (UniProt P36897); assay: co-IP; HEK293 transiently transfected with FLAG-tagged bait only (with or without TGFβ 50 pM 45 min; with or without HA-SMAD7 for ALK5); FLAG IPs immunoblotted for endogenous USP11
T2 sequence: T1 sequence

FLAG–SMAD7 (human) [2] = molecular target: FLAG–SMAD7 (human) (UniProt O15105); assay: as above
[3] = molecular target: T3, endogenous ALK5 (human (endogenous in HEK293)) (UniProt P36897); assay: co-IP; endogenous IP: 5 mg HEK293 lysate (vehicle or TGFβ 50 pM 45 min), SMAD7 or ALK5 antibody covalently bound to protein G Dynabeads, 30 min at room temperature, PBS washes; blot for endogenous USP11; pre-immune IgG as control
T3 sequence: T1 sequence

[4] = molecular target: endogenous SMAD7 (human (endogenous in HEK293 and HaCaT)) (UniProt O15105); assay: as above

Measured: binding

HA-USP11 (from UniProt P51784 1-963) (enzyme)
binds: FLAG-ALK5 (human) | FLAG–SMAD7 (human) [1]

endogenous USP11 (from UniProt P51784 1-963) (enzyme)
binds: 3XFLAG-ALK5 (human) | FLAG–SMAD7 (human) [2] | [3] | [4]
